# According to the supplement of paper PMC7824004:
# The other results are listed elsewhere or left out. The data scatter; read single values as rough.
# Tested on: Candida albicans SN425
# Assay: biofilm OD600 B-score; higher = more biofilm (less inhibition)
# Conditions: 10 µM; assay detail: High-throughput adherence inhibition optical density biofilm assay with C. albicans SN425 in RPMI-1640/MOPS pH 7.0, 384-well plates. …
# Description: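 High-throughput adherence inhibition optical density biofilm assay with C. albicans SN425 in RPMI-1640/MOPS pH 7.0, 384-well plates. Compound (10 µM) was present only during the 90 min adherence step, then washed out, and the biofilm grew 24 h without compound. Biofilm was read as OD600 after removing the media. Scores are the difference from the mean in standard deviations and the plate B-score.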
row,SMILES,biofilm OD600 B-score
1,O=C(Nc1cccnc1)c1cccc(NC(=O)c2ccco2)c1,-1.87
2,O=C(NCCC1=CCCCC1)c1ccncc1,-0.267
3,O=C(Nc1ccc(-c2nnc(-c3ccccc3)o2)cc1)c1ccco1,-0.301
4,NC(=O)C(Cc1ccccc1)N1CC(=O)NC(=O)C1 (configuration not stated),-3.76
5,O=C(CCc1ccccc1)Nc1ccccn1,-1.13
6,O=C(CSc1ncnc2nc[nH]c12)N1CCOCC1,-2.57
7,C=CCOc1ccc(CN2CCOCC2)cc1,0.572
8,Cc1cc(SCC(C)C)n2ncnc2n1,-0.986
9,CC(=O)c1sc(Nc2ccc(Oc3ccccc3)cc2)nc1C,3.97
10,COc1cc(Cl)c(S(=O)(=O)N2CCN(C)CC2)cc1Cl,0.0149
11,O=C(c1cccc(Cl)c1)N1CCC(C(=O)N2CCN(Cc3ccccc3)CC2)CC1,1.1
12,Cc1ccc(S(=O)(=O)N2CCc3ccccc32)cc1C(N)=O,4.74
13,COc1ccc(NC(=O)NC(C)c2ccccc2)cc1 (configuration not stated),0.719
14,COc1cc(C)c(S(=O)(=O)NCc2cccnc2)cc1C,0.771
15,CC(=O)Nc1ccc(Nc2nc(-c3cccs3)cs2)cc1,-0.703
16,O=[N+]([O-])c1ccccc1/C=C/CN1CCCCC1CO (configuration not stated),-0.17
17,CC(C(=O)NN)C1=NC(C)(C)Cc2ccccc21 (configuration not stated),-0.0261

# Compounds listed so far with four or more nitrogen atoms:
row,SMILES,biofilm OD600 B-score
6,O=C(CSc1ncnc2nc[nH]c12)N1CCOCC1,-2.57
8,Cc1cc(SCC(C)C)n2ncnc2n1,-0.986
